Here are results for 32 compounds from the supplement of paper PMC12889115.

The test system of this assay is Salmonella enterica serovar Typhimurium SL1344. In words: bacterial growth OD600 after 18 h with compound and polymyxin B; higher = more bacterial growth (less inhibition). Particulars: 50 µM, Mueller-Hinton broth.

The other results are listed elsewhere or left out. Values are raw readings; no control value is given beside them.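 First-pass screen: polymyxin B was added at a level that permeabilizes the Salmonella outer membrane while sparing the inner membrane. DMSO wells, with and without polymyxin B, defined maximum growth. Because plates differed from one another, each plate's data were ranked separately and the compounds with the lowest OD600 were carried forward as hits.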

As for `CN(CCC(O)c1ccccc1)c1nncc(-c2cc3ccccc3o2)n1` (configuration not stated), the “bacterial growth OD600” value (polymyxin B 1 µg/mL) worked out at 0.441.
Regarding `COC(=O)c1cc(CNC(=O)COc2ccccc2)cc(NC(=O)C2(c3ccc(Cl)cc3)CC2)c1`, the “bacterial growth OD600” value (polymyxin B 0.75 µg/mL) turned out to be 0.79.
Take `Cc1ccsc1C(=O)C1CCCN(Cc2cccn2-c2ccc(Cl)cn2)C1` (configuration not stated): the “bacterial growth OD600” value (polymyxin B 1 µg/mL) is 0.833.
Turning to `CC(=O)c1ccc(OCC(=O)NC(C)c2cnn(-c3ccccc3C)c2C)cc1` (configuration not stated), the “bacterial growth OD600” value (polymyxin B 1 µg/mL) was 0.816.
Turning to `CCCNC(=O)NC1CC(=O)N(Cc2ccccc2C(F)(F)F)C1` (configuration not stated), the “bacterial growth OD600” value (polymyxin B 1 µg/mL) came to 0.818.
As for `COCCn1cnc2cc(NC(=O)C3CCCCC3)cc(C(=O)N3CCCC3c3nccs3)c21` (configuration not stated), the “bacterial growth OD600” value (polymyxin B 0.75 µg/mL) amounted to 0.812.
Turning to `COc1cccc(CN2CCC(n3nccc3NC(=O)c3ccccc3)CC2)c1`, the “bacterial growth OD600” value (polymyxin B 1 µg/mL) was determined as 1.08.
With `CC(C)(CO)NC(=O)c1csc2nc(-c3ccc(C(F)(F)F)cc3)cn12`, the “bacterial growth OD600” value (polymyxin B 1 µg/mL) is 0.838.
As for `CN(Cc1cccnc1)C(=O)C1CCC(=O)N(CCc2ccc(Cl)cc2)C1` (configuration not stated), the “bacterial growth OD600” value (polymyxin B 1 µg/mL) was found to be 1.1.
Same read-out and setting: as for `Cc1cccc(-c2cccc(NC(=O)C3CCCN3Cc3ccc(CO)o3)c2)c1` (configuration not stated), the figure is 0.263.
With `COc1ccc(CCNC(=O)CCC2(Cc3cccc4ccccc34)CCC(=O)N2)cc1OC` (configuration not stated), under “polymyxin B 0.75 µg/mL”, the “bacterial growth OD600” value amounted to 0.846.
In the case of `COc1ccc(C(C)N(C)Cc2nc(-c3cc(C)c(OC)cc3C)oc2C)cc1` (configuration not stated), where the note is “polymyxin B 0.75 µg/mL”, the “bacterial growth OD600” value came out at 0.496.
Still for that read-out and setting: the result for `O=C(C1CC1)N1CCOc2c(cc(-c3csc4ccccc34)cc2OC2CCOC2)C1` (configuration not stated) reads 0.658.
For `O=C(c1cc(COc2ccc3c(c2)OCO3)[nH]n1)N1CCCC(O)C1` (configuration not stated), the “bacterial growth OD600” value (polymyxin B 1 µg/mL) was 0.979.
Take `COc1ccc(N2C(=O)CN(C(=O)c3ccc(C#CC(C)(C)O)cc3)CC23CCCC3)cc1`: the “bacterial growth OD600” value (polymyxin B 0.75 µg/mL) amounted to 0.734.
Same read-out and setting: the result for `COc1ccccc1Oc1ncccc1CNC(=O)c1sc(C)nc1C` reads 0.788; that for `CCCCN(C)C(=O)c1sc2ncnc(N3CCCCCCC3)c2c1C`, 0.008.
In the case of `CCC(=O)N[C@@H]1c2ccccc2C2(CCN(C(=O)C3=C(C)OCCO3)CC2)[C@H]1OCc1cccnc1`, the “bacterial growth OD600” value (polymyxin B 0.75 µg/mL) came to 0.843.
In the case of `Cc1nccn1-c1ccc(NC(=O)C2CCCN2C(=O)C2(C)CC2)cc1` (configuration not stated), the “bacterial growth OD600” value (polymyxin B 1 µg/mL) turned out to be 1.02.
`O=C(c1coc(COc2ccc3c(c2)OCO3)n1)N1CC[C@@H]2CCCC[C@H]2C1`: the “bacterial growth OD600” value (polymyxin B 1 µg/mL) was found to be 0.007.
As to `CC1(C)CC(NC(=O)c2cc(NS(C)(=O)=O)cc3ncn(CCc4ccccc4)c23)CCO1` (configuration not stated), for the setting “polymyxin B 0.75 µg/mL”, the “bacterial growth OD600” value came to 0.865.
`CCOC(=O)C1(Cc2ccc(F)cc2F)CCCN(C(=O)c2ccc(C(C)=O)cc2)C1` (configuration not stated): the “bacterial growth OD600” value (polymyxin B 1 µg/mL) is 0.949.
As for `CSCCCNC(=O)C1CCC(=O)N(CCc2ccc(Cl)cc2)C1` (configuration not stated), the “bacterial growth OD600” value (polymyxin B 1 µg/mL) is 0.866.
Turning to `O=C(CC1(c2ccccc2Cl)CC(=O)N(C2CCCC2)C1=O)N1CCC(c2ccncc2)CC1` (configuration not stated), under “polymyxin B 0.75 µg/mL”, the “bacterial growth OD600” value is 0.013.
`Cc1cc(C)n(-c2ccc(NC(=O)C3CCCCN3C(=O)c3cscn3)cc2)n1` (configuration not stated): under “polymyxin B 1 µg/mL”, the “bacterial growth OD600” value worked out at 0.938.
For `Cc1ncc2c(c1CNS(C)(=O)=O)CCN(C(=O)c1ccc3c(c1)c1ccccc1n3C)C2`, for the setting “polymyxin B 0.75 µg/mL”, the “bacterial growth OD600” value came out at 0.854.
Same read-out and setting: as for `CCOc1cccc(CN2CCC3(CC2)c2ccccc2[C@@H](NC(=O)CC)[C@@H]3OCCOC)c1O`, the figure is 0.872; as for `CN(Cc1ccon1)C(=O)C1CC(Cc2ccc(F)cc2)=NO1` (configuration not stated), 0.826.
For `CCOC(=O)C1CCN(CC2(O)CCCN(CC3CCC3)C2=O)CC1` (configuration not stated), under “polymyxin B 1 µg/mL”, the “bacterial growth OD600” value came to 1.01.
As for `COc1ccc(CN2CCN(Cc3cnn(C)c3C)CC2CCO)cc1C` (configuration not stated), under “polymyxin B 1 µg/mL”, the “bacterial growth OD600” value is 0.965.
For the compound `CCC(=O)N1CCC2(CCCN(Cc3cccc(F)c3F)C2=O)C1` (configuration not stated), for the setting “polymyxin B 1 µg/mL”, the “bacterial growth OD600” value is 0.936.
As for `CCS(=O)(=O)Nc1cc(C(=O)N2CCN(CCOC)CC2)c2c(c1)nc(-c1ccccc1)n2C`, the “bacterial growth OD600” value (polymyxin B 0.75 µg/mL) is 0.826.
